Experimental data: PubChem BioAssay AID588590 (National Center for Advancing Translational Sciences (NCATS), 2011)
In all, about 390,000 compounds went through this assay and about 4,000 (1%) were called active. The shares of active, inactive and inconclusive entries below differ from those in the screen. Calls come from the whole dose curve; as a rule, active = well fitted inhibition curve with a large enough effect; inconclusive = small, poorly fitted or top-dose-only effect, or another doubt; inactive = no such curve, though single readings can be large or run the other way. Where the call is inconclusive, the potency comes from a doubtful curve fit.

Sequences of proteins named here, by UniProt entry; tags and fusion partners are left off. A change or cut given only in a name is not applied to a line headed by its entry.
UniProt Q9UNA4: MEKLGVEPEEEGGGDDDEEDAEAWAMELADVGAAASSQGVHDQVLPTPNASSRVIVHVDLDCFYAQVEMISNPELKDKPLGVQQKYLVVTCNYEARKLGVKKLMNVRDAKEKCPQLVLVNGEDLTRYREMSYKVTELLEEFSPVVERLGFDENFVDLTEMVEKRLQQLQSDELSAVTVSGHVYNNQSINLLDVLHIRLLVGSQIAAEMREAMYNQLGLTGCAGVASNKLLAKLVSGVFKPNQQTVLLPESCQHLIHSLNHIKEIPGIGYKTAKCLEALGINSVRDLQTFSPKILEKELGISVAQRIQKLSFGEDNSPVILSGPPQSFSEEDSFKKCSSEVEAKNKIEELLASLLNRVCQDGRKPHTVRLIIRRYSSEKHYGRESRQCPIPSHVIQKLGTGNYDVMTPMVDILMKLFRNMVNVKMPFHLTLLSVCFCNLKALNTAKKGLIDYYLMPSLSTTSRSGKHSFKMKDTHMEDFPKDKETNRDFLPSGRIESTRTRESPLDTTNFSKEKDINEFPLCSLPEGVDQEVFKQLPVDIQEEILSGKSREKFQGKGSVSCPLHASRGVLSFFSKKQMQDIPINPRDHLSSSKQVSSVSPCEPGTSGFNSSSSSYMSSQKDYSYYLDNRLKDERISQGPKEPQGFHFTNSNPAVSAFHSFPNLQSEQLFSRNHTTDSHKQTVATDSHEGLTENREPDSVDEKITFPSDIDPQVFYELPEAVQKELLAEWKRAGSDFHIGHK

What follows are compounds tested against DNA polymerase iota (Homo sapiens) (UniProt Q9UNA4) (assay: qHTS for Inhibitors of Polymerase Iota). Conditions: Pol iota fluorescent replication assay, 10 min; series mostly up to 115 µM; activity, negative = inhibition: at the top concentration.
In short: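 Fluorescent replication assay read twice, at 0 min and 10 min after adding 50 nM (final) substrate. Enzyme (10 nM) and compounds were first incubated 15 min at room temperature; enzyme-free buffer wells were negative controls.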
Potency is the fitted concentration of half-maximal effect.

SMILES | Potency | activity, negative = inhibition
Cc1ccc(S(=O)(=O)N2CCN(c3nc(-n4cnc5ccccc54)nc4ccccc34)CC2)cc1 | inconclusive: 89.1 µM [inhibitor, single point] | 
COc1ccc(OC)c(-n2c(=O)[nH]c3cc(C(=O)NCCc4ccc(OC)c(OC)c4)ccc3c2=O)c1 |  | inactive: 7.49%
S=c1ncc2[nH]c(=S)[nH]c2[nH]1 | inconclusive: 11.2 µM [inhibitor, partial curve, poor fit] | 
COc1ccc([C@H]2CC(=O)C=C(c3cccc(OCc4ccccc4)c3)C2)cc1 | inconclusive: 15.8 µM [inhibitor, partial curve, poor fit] | 
O=C(CSc1ccc(-c2ccco2)nn1)NCc1ccc2c(c1)OCO2 | inconclusive: 20 µM [inhibitor, partial curve, poor fit] | 
COc1ccccc1N1CCN(C(c2ccccc2)c2nnnn2CCc2ccccc2)CC1 (configuration not stated) | inconclusive: 7.94 µM [inhibitor, single point] | 
COc1ccccc1NC(=O)c1ccc(-c2ccc(Br)cc2)o1 | inconclusive: 100 µM [inhibitor, single point] | 
Cc1[nH]n(-c2ccccc2)c(=O)c1C(c1cccc([N+](=O)[O-])c1)c1c(C)[nH]n(-c2ccccc2)c1=O | inconclusive: 1.12 µM [inhibitor, full curve, poor fit] | 
Cc1nn(CC(=O)N2CCC(N3CCCCC3)CC2)c(=O)c2c1sc1ccccc12 |  | inactive: -3.49%
CCCCNc1c(-c2ccc(OC)c(SC3CCCCC3)c2)nc2cnccn12 | inconclusive: 15.8 µM [inhibitor, partial curve, poor fit] | 
COc1ccc(/C=C(\NC(=O)c2ccccc2)C(=O)NC2CCCCC2)cc1 | inconclusive: 89.1 µM [inhibitor, partial curve] | 
CCCN1C(=O)c2ccc(C(=O)NCc3ccco3)cc2C1=O | inconclusive: 100 µM [inhibitor, partial curve, poor fit] | 
O=C(CSc1nc2ccccc2s1)NNC(=O)Nc1ccc(Cl)c(Cl)c1 | inconclusive: 11.2 µM [inhibitor, partial curve, poor fit] | 
COc1ccc(CC(=O)N/N=C/c2ccc(-c3ccc(F)cc3)o2)cc1OC |  | inactive: 46.4%
CN(C)CCn1c(=S)[nH]c2ccc(Cl)cc2c1=O | inconclusive: 31.6 µM [inhibitor, partial curve, poor fit] | 
COc1ccc(-c2cc(C(=O)Oc3ccc(Cl)cc3)c3ccccc3n2)cc1 | inconclusive: 100 µM [inhibitor, single point] | 
CN(C1CCCCC1)S(=O)(=O)c1ccc(NC(=S)NC(=O)c2cccs2)cc1 | inconclusive: 0.631 µM [inhibitor, full curve, poor fit] | 

3 structures out of the list, ordered by heavy-atom count, low to high:
SMILES | Potency | activity, negative = inhibition
CN(C)CCn1c(=S)[nH]c2ccc(Cl)cc2c1=O | inconclusive: 31.6 µM [inhibitor, partial curve, poor fit] | 
CN(C1CCCCC1)S(=O)(=O)c1ccc(NC(=S)NC(=O)c2cccs2)cc1 | inconclusive: 0.631 µM [inhibitor, full curve, poor fit] | 
Cc1[nH]n(-c2ccccc2)c(=O)c1C(c1cccc([N+](=O)[O-])c1)c1c(C)[nH]n(-c2ccccc2)c1=O | inconclusive: 1.12 µM [inhibitor, full curve, poor fit] | 
